Values from PubChem BioAssay AID1259307 (Sanger Institute, 2017).

Aim: 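Screen of kinase gene silencing for colorectal cancer cell killing and drug cooperation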 (primary screen)
Cells: SW620 colorectal cancer cells
Knock-down reagent: siRNA pool against human genes
Challenge: anchor drugs BYL719 at 1 µM, cetuximab at 5 µg/ml or trametinib at 10 nM, each beside a DMSO vehicle arm
Read-out: 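Cell viability in each well relative to non-targeting controls, averaged over replicates and turned into a robust z-score; synergy with BYL719 (1 µM), cetuximab (5 µg/ml), trametinib (10 nM) versus DMSO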
Scale: viability robust z-score, no drug and viability vs control, no drug: higher = more viable cells
Rule for the call: 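Essential when the viability robust z-score without drug is under -3; synergy scores are ignored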
Meaning of the calls: active = essential (lethal alone); inactive = no change alone
Shown is a random part of 794 reagents. 15 of all reagents (1.9%) count as active. 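Calls reflect lethality without any drug; synergy scores did not enter the calls.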 Viability is capped at 1. Further read-outs or replicates are left out here. Not stated in the record: the amount of reagent, the time to read-out.

Which result is listed for PRPS1 (phosphoribosyl pyrophosphate synthetase 1) [SID56479145]?
viability robust z-score, no drug: -0.298; viability vs control, no drug: 0.905; activity call: inactive

With TGFBR3 (transforming growth factor beta receptor 3) [SID152150530], what was measured?
viability robust z-score, no drug: 0.363; viability vs control, no drug: 0.966; activity call: inactive

How did the screen score GUCY2C (guanylate cyclase 2C) [SID152148747]?
viability robust z-score, no drug: 0.736; viability vs control, no drug: 1; activity call: inactive

How did the screen score ACVR2A (activin A receptor type 2A) [SID152150723]?
viability robust z-score, no drug: 0.368; viability vs control, no drug: 0.966; activity call: inactive

For STK38L (serine/threonine kinase 38 like) [SID152156064], what does the deposit list?
viability robust z-score, no drug: -1.04; viability vs control, no drug: 0.836; activity call: inactive

With NTRK2 (neurotrophic receptor tyrosine kinase 2) [SID152152425], what was measured?
viability robust z-score, no drug: 0.736; viability vs control, no drug: 1; activity call: inactive

With MGA (MAX dimerization protein MGA) [SID135624287], what was measured?
viability robust z-score, no drug: -0.0993; viability vs control, no drug: 0.923; activity call: inactive

With TNIK (TRAF2 and NCK interacting kinase) [SID152153870], what was measured?
viability robust z-score, no drug: 0.736; viability vs control, no drug: 1; activity call: inactive

Which result is listed for SOS2 (SOS Ras/Rho guanine nucleotide exchange factor 2) [SID152153288]?
viability robust z-score, no drug: 0.123; viability vs control, no drug: 0.943; activity call: inactive

For ACVR2B (activin A receptor type 2B) [SID135620907], what was measured?
viability robust z-score, no drug: -1.07; viability vs control, no drug: 0.833; activity call: inactive

How did the screen score CSNK1D (casein kinase 1 delta) [SID56478658]?
viability robust z-score, no drug: 0.736; viability vs control, no drug: 1; activity call: inactive

What did the screen give for MAP3K2 (mitogen-activated protein kinase kinase kinase 2) [SID135620706]?
viability robust z-score, no drug: 0.736; viability vs control, no drug: 1; activity call: inactive

For MYLK3 (myosin light chain kinase 3) [SID152154935], what was measured?
viability robust z-score, no drug: 0.583; viability vs control, no drug: 0.986; activity call: inactive

With PRAG1 (PEAK1 related, kinase-activating pseudokinase 1) [SID152147410], how do the results read?
viability robust z-score, no drug: 0.736; viability vs control, no drug: 1; activity call: inactive

What is on record for EIF2AK3 (eukaryotic translation initiation factor 2 alpha kinase 3) [SID152151333]?
viability robust z-score, no drug: -2.03; viability vs control, no drug: 0.745; activity call: inactive

What is on record for NUAK2 (NUAK family kinase 2) [SID56479046]?
viability robust z-score, no drug: 0.468; viability vs control, no drug: 0.975; activity call: inactive

For KSR1 (kinase suppressor of ras 1) [SID152156641], what was measured?
viability robust z-score, no drug: -0.41; viability vs control, no drug: 0.894; activity call: inactive

Which result is listed for CDK7 (cyclin dependent kinase 7) [SID152150057]?
viability robust z-score, no drug: 0.736; viability vs control, no drug: 1; activity call: inactive

How did the screen score RIPK1 (receptor interacting serine/threonine kinase 1) [SID152148235]?
viability robust z-score, no drug: 0.736; viability vs control, no drug: 1; activity call: inactive

2 entries from above, ordered by “viability robust z-score, no drug”, descending.
GUCY2C (guanylate cyclase 2C) [SID152148747] — viability robust z-score, no drug: 0.736; viability vs control, no drug: 1; activity call: inactive
ACVR2A (activin A receptor type 2A) [SID152150723] — viability robust z-score, no drug: 0.368; viability vs control, no drug: 0.966; activity call: inactive
